Experimental findings from publication PMC4650548 are described below.

By UniProt entry, the sequences of proteins in these tests, tags left out. Where a name states a change or a piece, a line headed by the entry shows the natural chain unless it says otherwise.
UniProt Q9P1Y6: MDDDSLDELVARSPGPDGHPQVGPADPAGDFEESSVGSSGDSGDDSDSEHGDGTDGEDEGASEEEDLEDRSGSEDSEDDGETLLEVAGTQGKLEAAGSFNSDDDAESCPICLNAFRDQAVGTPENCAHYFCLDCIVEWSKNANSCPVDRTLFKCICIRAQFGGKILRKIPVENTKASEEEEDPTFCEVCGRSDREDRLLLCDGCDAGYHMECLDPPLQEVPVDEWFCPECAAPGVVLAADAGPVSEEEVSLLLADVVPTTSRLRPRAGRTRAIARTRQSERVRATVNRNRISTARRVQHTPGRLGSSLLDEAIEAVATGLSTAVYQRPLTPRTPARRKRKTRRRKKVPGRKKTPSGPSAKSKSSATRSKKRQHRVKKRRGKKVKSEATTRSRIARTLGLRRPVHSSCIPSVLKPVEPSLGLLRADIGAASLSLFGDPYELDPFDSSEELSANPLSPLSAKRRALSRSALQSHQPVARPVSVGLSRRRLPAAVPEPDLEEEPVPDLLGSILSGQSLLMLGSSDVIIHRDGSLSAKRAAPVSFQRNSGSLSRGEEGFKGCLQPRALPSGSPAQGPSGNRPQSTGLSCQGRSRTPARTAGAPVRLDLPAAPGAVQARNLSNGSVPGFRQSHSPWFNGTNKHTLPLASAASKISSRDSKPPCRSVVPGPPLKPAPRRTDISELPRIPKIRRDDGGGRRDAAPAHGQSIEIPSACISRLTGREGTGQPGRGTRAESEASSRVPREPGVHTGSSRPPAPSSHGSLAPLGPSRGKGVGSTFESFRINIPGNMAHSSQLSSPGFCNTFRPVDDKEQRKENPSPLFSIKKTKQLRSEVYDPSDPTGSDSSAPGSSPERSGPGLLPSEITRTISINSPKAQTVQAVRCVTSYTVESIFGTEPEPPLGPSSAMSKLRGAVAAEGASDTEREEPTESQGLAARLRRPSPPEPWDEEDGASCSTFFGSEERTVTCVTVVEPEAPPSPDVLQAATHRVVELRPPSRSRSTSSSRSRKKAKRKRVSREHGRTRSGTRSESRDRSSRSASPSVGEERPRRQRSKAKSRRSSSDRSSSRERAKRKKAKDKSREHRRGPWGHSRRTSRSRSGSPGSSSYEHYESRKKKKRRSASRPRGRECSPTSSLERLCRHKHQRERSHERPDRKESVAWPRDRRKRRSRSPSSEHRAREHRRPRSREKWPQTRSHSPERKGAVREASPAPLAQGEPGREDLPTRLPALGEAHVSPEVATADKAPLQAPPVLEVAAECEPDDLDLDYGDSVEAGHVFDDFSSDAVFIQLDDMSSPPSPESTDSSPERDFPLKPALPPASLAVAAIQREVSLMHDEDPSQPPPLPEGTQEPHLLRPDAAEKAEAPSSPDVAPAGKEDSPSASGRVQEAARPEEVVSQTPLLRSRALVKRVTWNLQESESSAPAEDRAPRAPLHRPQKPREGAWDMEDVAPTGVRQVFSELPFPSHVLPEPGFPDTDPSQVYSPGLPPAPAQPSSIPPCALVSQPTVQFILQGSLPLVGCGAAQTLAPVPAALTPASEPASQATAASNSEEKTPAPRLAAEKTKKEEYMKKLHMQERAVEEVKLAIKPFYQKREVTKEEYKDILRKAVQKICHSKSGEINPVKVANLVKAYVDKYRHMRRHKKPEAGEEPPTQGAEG
UniProt O60934: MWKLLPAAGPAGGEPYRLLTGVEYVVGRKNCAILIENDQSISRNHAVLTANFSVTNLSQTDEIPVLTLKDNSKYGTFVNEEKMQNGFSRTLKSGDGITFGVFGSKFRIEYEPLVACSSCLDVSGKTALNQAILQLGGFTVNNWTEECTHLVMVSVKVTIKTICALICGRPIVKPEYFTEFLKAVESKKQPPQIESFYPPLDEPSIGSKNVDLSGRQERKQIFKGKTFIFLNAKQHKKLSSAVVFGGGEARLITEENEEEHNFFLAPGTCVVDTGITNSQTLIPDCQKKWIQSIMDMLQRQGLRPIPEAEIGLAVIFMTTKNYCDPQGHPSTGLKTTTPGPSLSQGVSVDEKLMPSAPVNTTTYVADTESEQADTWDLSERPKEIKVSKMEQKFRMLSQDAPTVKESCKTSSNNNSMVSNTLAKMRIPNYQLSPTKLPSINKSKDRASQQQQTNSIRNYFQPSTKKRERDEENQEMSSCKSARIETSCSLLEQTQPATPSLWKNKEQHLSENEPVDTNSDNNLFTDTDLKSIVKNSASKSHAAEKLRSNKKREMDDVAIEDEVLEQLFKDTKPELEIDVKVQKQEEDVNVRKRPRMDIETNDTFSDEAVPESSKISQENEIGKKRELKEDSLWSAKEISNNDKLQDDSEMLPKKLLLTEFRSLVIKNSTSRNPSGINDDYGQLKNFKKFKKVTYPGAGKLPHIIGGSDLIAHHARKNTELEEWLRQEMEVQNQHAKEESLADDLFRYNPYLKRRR

The target of assay [1] is HA-PHRF1 (reciprocal transfection of Figure 5a) (human) (UniProt Q9P1Y6). In words: co-IP; reciprocal transfection with HA-PHRF1; precipitates of PHRF1 blotted for NBS1 and Mre11.
The target in assay [2] is T1, Biotin-labeled A^915DA^917E peptide (a.a. 908-924 of PHRF1) (human).
T1 sequence (peptide, biotin (position not stated)): AVAAEGAADAEREEPTE
In words: pull-down; biotin-labeled PHRF1 peptides (a.a. 908-924) incubated with 500 ug HeLa whole-cell extracts at 4 C for 3 h, then streptavidin beads for 3 h; immunoblot; only the target purified.

In another assay the target is HA-PHRF1 (human) (UniProt Q9P1Y6). In words: co-IP; HA-tagged PHRF1 constructs transfected into HEK293T cells (48 h); cell extracts precipitated with anti-HA agarose, immunoblot with the indicated antibodies; time course after CPT exposure in Figure 3a.
The target in the next assay is HA-PHRF1^S925A (human) (UniProt Q9P1Y6). The description is as above.
Assay [3] concerns the target HA-PHRF1^S925A/S1389A (human) (UniProt Q9P1Y6). The description is as above.
For another assay, the target named is FLAG-NBS1 (UniProt O60934). In words: co-IP; HeLa cells transfected with FLAG-NBS1; extracts precipitated with anti-FLAG agarose, immunoblot with anti-PHRF1. A general note: A western blot detects proteins with antibodies after separation by electrophoresis.

These are yes or no findings as the source states them, for the method shown. Binding seen in cells or lysates may run through a third protein. Some results given as binding are weak or reduced against the parent protein; the word gives no strength.

“Endogenous NBS1 (HeLa) (from UniProt O60934 1-754)”: the binding result in assay [1] was “binds”; in assay [2], “no binding”.

Turning to “Endogenous NBS1 (HEK293T) (from UniProt O60934 1-754)”, the binding entry (with HA-PHRF1 (human); with HA-PHRF1^S925A (human); in assay [3]) was “binds” in each case.

For “Endogenous PHRF1 (from UniProt Q9P1Y6 1-1649)”, in the assay with FLAG-NBS1, the binding result is “binds”.
